Test results: patent EP4843985A1, “TRIAZOLOPYRIMIDINE DERIVATIVE, PREPARATION METHOD THEREFOR AND USE THEREOF” (dated 2026)
Structures were worked out from names or drawings and are uncertain.

Tested on: human endometrial Ishikawa cell subcutaneous xenograft tumor
Assay: In vivo pharmacodynamic study in the Ishikawa xenograft tumor model
Protocol: To evaluate the in vivo efficacy of the compounds in a human endometrial Ishikawa cell subcutaneous xenograft tumor mouse model.
• Species: Mouse • Strain: Balb/c Nude mouse • Age and body weight: 6-8 weeks of age, weighing 20-24 g • Sex: Female • Quantity: 115 (including remaining mice from grouping) • Supplier: Zhejiang Vital River Laboratory Animal Technology Co., Ltd. • Animal certificate: 20240822Abzz0619000609
Human endometrial cancer Ishikawa cells (ECACC, 99040201) were cultured in vitro under the following conditions: DMEM medium supplemented with 10% fetal bovine serum, 1% antibiotics, 2 mM glutamine, 1% non-essential amino acids, 1 mM sodium pyruvate, and 1.5 g/L sodium bicarbonate, at 37°C in a 5% CO2 cell incubator. Routine passaging was performed by centrifugation twice a week. When the cell confluence reached 80% to 90% and the cell number met the requirement, the cells were harvested, counted, and inoculated.
A 0.2 mL cell suspension containing 1.0*10^7 Ishikawa cells (the cells were suspended in medium DMEM:Matrigel = 1:1) was subcutaneously inoculated into the right dorsal flank of each mouse. […]
The health status and mortality of the animals were monitored daily. Routine inspections included observing the effects of tumor growth and drug treatment on the animals' daily behavioral performance, such as behavioral activity, food and water intake (visual inspection only), body weight changes (body weight was measured three times per week), appearance signs, or other abnormal conditions. Based on the number of animals in each group, the number of animal deaths and side effects within the group were recorded.
Tumor diameters were measured twice per week using a vernier caliper. […]
The anti-tumor efficacy of the compounds was evaluated by the tumor growth inhibition rate TGI (%). […]
At the end of the experiment, tumors were excised from the mice, weighed, and the tumor inhibition rate was calculated. […]

Measured: anti-tumor effects (in words)

[2H]C1([2H])CCC(c2nc3n4c(c(N5CCN(C(=O)c6ncnc(C)c6O)[C@H]6CC[C@@H]65)c(=O)n3n2)[C@H](C)C[C@@H]4C(=O)Nc2scc(C(F)(F)F)c2C)=CCO1
significant anti-tumor effects: 1 mg/kg | 3 mg/kg | 10 mg/kg
